Reference: patent US10653717B2, “Antibiotic compositions” (priority 2016, dated 2020)

Tests used:
[1] = tested on: KP-2: K. pneumonia subsp. pneumonia 0322#; assay: Drug sensitivity of clinical isolated strain; assay type: cell-based, Klebsiella pneumonia
[2] = tested on: KP-1: Klebsiella pneumonia subsp. pneumonia 13#; assay: Drug sensitivity of clinical isolated strain; assay type: cell-based; details: KP-1 (Table 3)
Also: key: R: resistant; S: sensitive.

Nc1ccc(S(N)(=O)=O)cc1 [Sulfanilamide]
Drug sensitivity ([1]; KP-2 (Table 3)): R | Drug sensitivity ([1]; KP-2 (table of Example 3)): R | Drug sensitivity [2]: S
